# In PubChem BioAssay AID1671190 (National Center for Advancing Translational Sciences (NCATS), 2021):
# The chains behind the UniProt entries cited, without tags or fusion partners. Where a name states a change or a piece, a line headed by the entry shows the natural chain unless it says otherwise.
# UniProt P18054: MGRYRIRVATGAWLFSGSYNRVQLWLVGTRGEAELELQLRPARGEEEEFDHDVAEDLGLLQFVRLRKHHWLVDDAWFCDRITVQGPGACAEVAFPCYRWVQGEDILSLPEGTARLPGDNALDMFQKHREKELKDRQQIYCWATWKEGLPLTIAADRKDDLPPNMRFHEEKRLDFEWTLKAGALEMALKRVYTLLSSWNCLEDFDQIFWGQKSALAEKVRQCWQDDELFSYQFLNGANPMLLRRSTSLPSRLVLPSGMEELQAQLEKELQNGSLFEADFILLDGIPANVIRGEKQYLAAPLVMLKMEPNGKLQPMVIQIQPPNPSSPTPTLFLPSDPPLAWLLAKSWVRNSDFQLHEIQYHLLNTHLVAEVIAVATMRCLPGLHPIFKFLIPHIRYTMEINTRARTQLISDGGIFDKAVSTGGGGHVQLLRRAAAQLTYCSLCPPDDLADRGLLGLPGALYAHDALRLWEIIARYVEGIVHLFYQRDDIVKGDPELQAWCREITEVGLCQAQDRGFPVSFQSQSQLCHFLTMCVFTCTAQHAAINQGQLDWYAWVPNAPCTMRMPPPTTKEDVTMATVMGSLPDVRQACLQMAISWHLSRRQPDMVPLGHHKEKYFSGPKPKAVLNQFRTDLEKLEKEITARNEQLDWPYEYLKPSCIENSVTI
# Values joined by “and” are separate entries in the source; they are usually repeats but may differ in a detail not shown here. Identical values can stand only once. Screen size: about 580,000 compounds; about 6,100 (1.1%) were called active. This list was built around the results that the source calls inconclusive (neither active nor inactive); the mix of calls is not that of the screen. Calls come from the whole dose curve; as a rule, active = well fitted inhibition curve with a large enough effect; inconclusive = small, poorly fitted or top-dose-only effect, or another doubt; inactive = no such curve, though single readings can be large or run the other way. Potencies of inconclusive entries are doubtful fits and often do not repeat.
# Target: Polyunsaturated fatty acid lipoxygenase ALOX12 (Homo sapiens) (UniProt P18054)
# Experiment: Primary qHTS assay for inhibitors of human arachidonate 12S-lipoxygenase (ALOX12): Round 2
# Conditions: purified 12hLO, xylenol orange hydroperoxide absorbance; activity change, negative = inhibition: at 108 µM (top of the series) unless noted
# Description: Assay Provider: Theodore R. Holman Ph.D. University of California, Santa Cruz, California Human lipoxygenase 12hLO is a member of the closely related lipoxygenase family of enzymes which catalyze the site-specific oxidation of arachidonic acid to various hormone precursor molecules and as such is a candidate for drug development in a variety of disease areas, such as cancer and inflammation. Inhibition of 12hLO activity was screened by utilizing arachidonic acid as a substrate. The extent of hydroperoxide product formation was measured by a secondary chromogenic reaction in which xylenol orange (XO, Sigma-Aldrich, cat. number 39,818-7) reacts with the ferric ions produced from the reaction between the hydroperoxide and ferrous ions. The Fe (III)-XO complex is characterized with red-shifted absorbance at 560 nm. A purified preparation of human 12hLO was supplied by Dr. Holman laboratory, University of California, Santa Cruz.
# PROTOCOL TABLE SEQUENCE No. (e.g., 1, 2, 3, etc.); […] (e.g., Cells, Incubation, Reagent, etc.); VALUE; DESCRIPTION 1; Enzyme; 3 uL; 150 nM 12hLO enzyme solution dispensed in 1536-well Greiner black, clear bottom plates. 2; Compound; 23 nL; compounds and controls were added. 3; Incubate; 15 min; room temperature. 4; Substrate; 1 uL; 40 uM arachidonic acid (final concentration). 5; Incubate; 30 min; room temperature. 6; Reagent; 4 uL; Fe-XO solution was added to each well. 7; Incubation; 30 min; room temperature 8; Detector; absorbance; Read 1 at 405 nm absorbance using ViewLux (Perkin-Elmer) CCD imager. 9; Detector; absorbance; Read 2 at 573 nm absorbance using ViewLux (Perkin-Elmer) CCD imager. NOTES (numbers refer to sequence above) 1; 150 nM 12hLO (final concentration) in buffer solution (25 mM Hepes, 0.01% Triton X-100, pH 7.0) was dispensed in columns 1, 2, 5-48. Column 1 is neutral (100% activity). Buffer only was dispensed in columns 3 and 4 as no enzyme negative controls. The plates were covered with metal lids with gas-exchange holes. 2; Compounds were pin transferred via a Kalypsys Pin Tool (Wako USA) in column 5-48. Control compound was transferred in column 2, titration of nordihydroguaiaretic acid (NDGA, Sigma-Aldrich, N5023) with top concentration of 20 mM in DMSO then 1:3 dilution in duplicate. Dilution factor of 23 nL into 4 uL final assay volume. 3; Covered assay plates were incubated for 15 min at room temperature. 4; Substrate was added to start the reaction; 40 uM arachidonic acid (Sigma-Aldrich, St. Louis, MO) was dispensed throughout the plate. 6; Chromogenic detection reagent solution (divalent iron/xylenol orange, Fe-XO) was added to each well: 200 uM xylenol orange, 300 uM ferrous ammonium sulfate prepared freshly in 50 mM sulfuric acid. 8, 9; Two absorbance readouts were obtained at 405 nm and at 573 nm using a ViewLux high-throughput CCD plate imager (Perkin-Elmer). The 573 to 405 (Read 2 / Read 1) absorbance ratio was used to compute reaction progress.
# % is set by controls: 0 for no effect and ±100 for the full control effect; potency is the fitted concentration of half-maximal effect.
SMILES,Potency,"activity change, negative = inhibition"
COC(=O)C1=C(C)N(Cc2ccc(F)cc2)C(=S)NC1c1cccc(F)c1 (centres undefined),"inconclusive: 44.7 µM [inhibitor, partial curve, poor fit]",–
CCOC(=O)C1(C)CCCN(C(=O)c2cccc(Cl)c2)C1 (centres undefined),"inconclusive: 0.178 µM [inhibitor, full curve, poor fit]",–
C[C@H](CO)N1C[C@H](C)[C@@H](CN(C)C(=O)Nc2ccc3c(c2)OCO3)Oc2ccc(NS(=O)(=O)c3cn(C)cn3)cc2C1=O,"inconclusive: 39.8 µM [inhibitor, partial curve, poor fit]",–
C=CCNC(=O)c1ccc(-c2cccc([N+](=O)[O-])c2)o1,–,inactive: -1.39%
COc1cc(Br)c(CNc2cc(C)ccc2C)cc1OC,"inconclusive: 0.398 µM [inhibitor, full curve, poor fit]",–
Cc1cccc(C(=O)Nc2ccc(-c3nc4ccccc4s3)cc2Cl)c1,–,inactive: 4.51%
NC(=S)NN=Cc1c[nH]c2nccnc12,"inconclusive: 6.31 µM [inhibitor, full curve]",–
C=CCNC(=S)NNc1nc(Nc2ccccc2)nc(N2CCCCC2)n1,"inconclusive: 44.7 µM [inhibitor, partial curve, poor fit]",–
CC(=O)c1cccc(NC(=O)CC2S/C(=N/N=C3CCCCCC3)NC2=O)c1 (centres undefined),–,inactive: -1.08%
CCN(CC)S(=O)(=O)c1ccc(NC(=S)NC(=O)C2CCC2)cc1,–,inactive: 141%
Cc1noc(C2CC3(CCN(C(=O)c4n[nH]c(=O)c5ccccc45)CC3)CN2C)n1 (centres undefined),–,inactive: 43.7%
S=C(NCCN1CCCCC1)Nc1ccc(Br)cc1,"inconclusive: 100 µM [inhibitor, partial curve, poor fit]",–
CCOC(=O)C(C(=O)OCC)c1c([N+](=O)[O-])c(=O)n2c3c(cccc13)CCC2,"inconclusive: 0.708 µM [inhibitor, full curve, poor fit]",–
O=Cc1ccc(OCc2ccc(Br)cc2)cc1,–,inactive: -51%
CC1=C(C(=O)NC(C)(C)C)C(c2ccc(Cl)cc2)N2C(CC(=O)N3CCCC3)=CSC2=N1 (centres undefined),–,inactive: -7.29%
Cc1[nH]n(-c2ccccc2)c(=O)c1/C=C1\C=NN=C1c1ccccc1,–,inactive: 384%
Cc1cc(C(=O)Nc2cccc3ccccc23)c(C)o1,–,inactive: 22%
C/C(=N/N(Cc1ccccc1)c1ccccc1)c1cccs1,–,inconclusive: -32.5% [inhibitor]
Cn1c(CSCc2ccccc2)nnc1SCC(=O)Nc1nccs1,–,inactive: -31.2%
CCC(C)Nc1nc(-c2ccc(NC(C)=O)cc2)cs1 (centres undefined),"inconclusive: 3.98 µM [inhibitor, full curve, poor fit]",–
COc1cccc(N2C(=O)NC(=NC3CCCC3)C23CCCN(C(=O)c2ccccc2OC)C3)c1 (centres undefined),–,inactive: 4.54% [at 6.33 µM]
CC1CCCC(NC(=O)NC(=O)CCl)C1C (centres undefined),–,inactive: -5.6%

SMILES,Potency,"activity change, negative = inhibition"
CC(C(=O)Nc1ccc2c(c1)OCO2)N(c1ccc(Cl)cc1)S(C)(=O)=O (centres undefined),–,inactive: -15.6%
CCOC(=O)N1CCN(S(=O)(=O)c2ccc(C(=O)Nc3sc4c(c3C(N)=O)CCN(CC)C4)cc2)CC1,–,inactive: -25.1%
CN=C1S/C(=C\c2ccc(OCC(=O)OC)c(OC)c2)C(=O)N1C,"inconclusive: 50.1 µM [inhibitor, partial curve, poor fit]",–
O=C(CN1CCCCC1)Nc1c2c(nc3ccccc13)N(c1ccccc1)CC2,"inconclusive: 50.1 µM [inhibitor, partial curve, poor fit]",–
C=CCn1c(=NC(=O)c2ccc(S(=O)(=O)N3CCc4ccccc4C3)cc2)sc2cc(S(N)(=O)=O)ccc21,–,inactive: -1.75%
Cc1ccc(S(=O)(=O)Nc2ccccc2SCc2cc(=O)n3cc(Cl)ccc3n2)cc1,"inconclusive: 31.6 µM [inhibitor, single point]",–
O=c1[nH]c(N2CCOCC2)nc2c1CCN(Cc1ccc(F)c(Br)c1)CC2,–,inactive: 39.9%
CCOc1ccc(CCN2C(=S)N([C@@H](Cc3ccccc3)CN3CCC[C@@H]3CN3C(=S)NC[C@@H]3CC(C)C)C[C@@H]2Cc2ccccc2)cc1,"inconclusive: 14.1 µM [inhibitor, partial curve, poor fit]",–
COc1ccc(CN2C(=O)C(Cc3ccccc3)Nc3ncnc(N4CCOCC4)c32)cc1 (centres undefined),"inconclusive: 25.1 µM [inhibitor, partial curve]",–
COCc1cc(CN2CCCC2)c(O)c2ncccc12,–,inactive: -25.4%
CCNc1c(NS(=O)(=O)c2ccc(F)cc2)c(=O)oc2ccccc12,–,inactive: 2.3%
CCO[C@H]1OC(C(=O)NC2CC2)=C[C@@H](c2c[nH]c3ccccc23)[C@@H]1CCCO,"inconclusive: 89.1 µM [inhibitor, single point]",–
Cn1c(=O)[nH]c(=O)c2c1nc(Sc1ccccc1)n2Cc1ccccc1,–,inactive: -20.1%
Cc1ccccc1-c1ncnn1-c1sc2c(c1C#N)CCCCC2,"inconclusive: 56.2 µM [inhibitor, single point]",–
O=C(Nc1nc(-c2ccc(Cl)s2)cs1)C1CC1,"inconclusive: 44.7 µM [inhibitor, partial curve, poor fit]",–
COc1ccc(-c2cc(C(=O)OCC(=O)c3ccc(C)cc3)c3cccc(Cl)c3n2)cc1,–,inconclusive: -30.7% [inhibitor]
Cc1cccc(NC(=O)CSc2nc(COc3ccccc3)nc3ccccc23)c1C,–,inactive: 8.11%
CC(=O)C1=C(O)C(=O)N(c2ccc(C)cc2)C1c1ccc([N+](=O)[O-])cc1 (centres undefined),"inconclusive: 25.1 µM [inhibitor, partial curve]",–
COc1ccc(NC2=CC(=O)N(C)C2=O)cc1,"inconclusive: 44.7 µM [inhibitor, partial curve, poor fit]",–
O=C(Nc1cc(S(=O)(=O)N2CCCCC2)ccc1O)c1ccccc1NS(=O)(=O)c1ccc(F)cc1,"inconclusive: 89.1 µM [inhibitor, partial curve, poor fit] and inconclusive: 44.7 µM [inhibitor, partial curve, poor fit]",–
CN(C)S(=O)(=O)c1cccc(NC(=O)COC(=O)/C=C/c2cccs2)c1,"inconclusive: 50.1 µM [inhibitor, partial curve, poor fit]",–
CCn1cnc2c1c(=O)n(CC(=O)Nc1cccc(OC)c1)c(=O)n2Cc1ccccc1,–,inactive: -24.8%
